Substitutions are numbered along the chain they refer to. The list shows a part of the results, in another mix than the full data. The calls were merged from several studies; some rest on single wells. Some of the results follow.
Columns and labels:
Settings in all cases: stereoisomer not certain
OR2L3 = test system: T1, OR2L3
T1 sequence (whole entry): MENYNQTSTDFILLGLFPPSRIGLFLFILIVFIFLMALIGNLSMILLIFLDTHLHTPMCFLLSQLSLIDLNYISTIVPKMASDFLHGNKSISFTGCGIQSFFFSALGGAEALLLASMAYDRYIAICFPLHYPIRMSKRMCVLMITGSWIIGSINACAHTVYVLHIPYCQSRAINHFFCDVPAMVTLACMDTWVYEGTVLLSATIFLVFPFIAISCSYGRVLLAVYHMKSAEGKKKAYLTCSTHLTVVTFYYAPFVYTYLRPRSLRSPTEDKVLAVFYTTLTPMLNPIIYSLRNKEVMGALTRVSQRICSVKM
How it was run: (§1)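 Values were gathered from published papers (main text and supplementary material), with extra details requested from the original authors when needed, and checked for typos and inconsistencies. Each receptor–molecule pair is called responsive (active) if the original authors judged the measured signal statistically different from baseline, and non-responsive (inactive) otherwise. Assay methods varied by source, often transient mammalian cell-line luciferase assays. Recorded details include cell line, G-protein, co-transfected protein and tags.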

Chains of the proteins cited; added tags and fusions are not shown. A line that says so, or that is headed by a name, gives the form on record, which may keep a tag or linker.
OR2M7, as listed by the source: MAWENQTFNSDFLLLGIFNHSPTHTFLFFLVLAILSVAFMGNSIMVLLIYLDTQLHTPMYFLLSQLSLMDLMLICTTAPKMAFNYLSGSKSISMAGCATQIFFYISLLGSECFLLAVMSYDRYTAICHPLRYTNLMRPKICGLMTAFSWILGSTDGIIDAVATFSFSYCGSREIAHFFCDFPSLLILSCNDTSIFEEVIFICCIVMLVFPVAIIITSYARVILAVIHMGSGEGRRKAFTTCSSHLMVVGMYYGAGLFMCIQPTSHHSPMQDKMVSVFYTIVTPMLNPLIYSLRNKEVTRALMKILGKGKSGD

OR2L5 (Homo sapiens) = biological target: T2, OR2L5 (Homo sapiens) (UniProt Q8NG80)
T2 sequence (whole entry): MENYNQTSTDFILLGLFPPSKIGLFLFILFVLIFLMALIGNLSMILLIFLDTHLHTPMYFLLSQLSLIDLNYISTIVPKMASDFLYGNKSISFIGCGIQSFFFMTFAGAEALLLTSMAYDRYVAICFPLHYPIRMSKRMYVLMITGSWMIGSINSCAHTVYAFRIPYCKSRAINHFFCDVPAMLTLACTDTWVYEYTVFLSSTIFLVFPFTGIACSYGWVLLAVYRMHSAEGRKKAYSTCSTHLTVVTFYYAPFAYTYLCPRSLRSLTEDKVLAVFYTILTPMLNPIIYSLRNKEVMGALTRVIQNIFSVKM
How it was run: as §1

OR2L8 = test system: T3, OR2L8
T3 sequence (whole entry): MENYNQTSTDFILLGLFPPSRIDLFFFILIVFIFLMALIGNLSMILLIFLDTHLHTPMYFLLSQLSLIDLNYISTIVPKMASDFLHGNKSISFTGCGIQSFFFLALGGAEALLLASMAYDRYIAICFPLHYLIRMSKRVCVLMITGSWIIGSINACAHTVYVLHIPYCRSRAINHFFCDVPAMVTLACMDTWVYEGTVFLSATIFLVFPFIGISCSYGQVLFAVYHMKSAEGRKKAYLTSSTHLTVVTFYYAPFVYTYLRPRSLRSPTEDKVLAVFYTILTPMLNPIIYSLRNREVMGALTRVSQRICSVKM
How it was run: as §1

OR2M2 = test system: T4, OR2M2
T4 sequence (whole entry): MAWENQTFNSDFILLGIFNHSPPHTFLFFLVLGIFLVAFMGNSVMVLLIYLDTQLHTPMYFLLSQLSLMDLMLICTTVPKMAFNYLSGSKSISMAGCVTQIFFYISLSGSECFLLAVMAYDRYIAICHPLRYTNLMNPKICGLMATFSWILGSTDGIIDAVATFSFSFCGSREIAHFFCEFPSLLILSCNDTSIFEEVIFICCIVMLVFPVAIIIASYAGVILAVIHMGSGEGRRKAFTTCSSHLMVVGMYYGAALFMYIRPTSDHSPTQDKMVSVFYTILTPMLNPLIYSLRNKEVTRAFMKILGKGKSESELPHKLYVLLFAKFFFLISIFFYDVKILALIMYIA
How it was run: as §1

OR2M3 (Homo sapiens) = biological target: T5, OR2M3 (Homo sapiens) (UniProt Q8NG83)
T5 sequence (whole entry): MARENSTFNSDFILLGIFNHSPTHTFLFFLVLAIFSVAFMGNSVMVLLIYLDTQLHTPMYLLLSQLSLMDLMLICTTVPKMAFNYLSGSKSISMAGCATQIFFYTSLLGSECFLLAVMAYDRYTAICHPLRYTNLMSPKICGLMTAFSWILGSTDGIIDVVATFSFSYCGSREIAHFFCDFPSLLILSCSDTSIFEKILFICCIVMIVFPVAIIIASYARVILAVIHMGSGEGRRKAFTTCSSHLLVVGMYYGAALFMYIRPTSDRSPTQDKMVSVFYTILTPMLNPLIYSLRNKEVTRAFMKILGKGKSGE
How it was run: as §1

OR2M4 (Homo sapiens) = biological target: T6, OR2M4 (Homo sapiens) (UniProt Q96R27)
T6 sequence (whole entry): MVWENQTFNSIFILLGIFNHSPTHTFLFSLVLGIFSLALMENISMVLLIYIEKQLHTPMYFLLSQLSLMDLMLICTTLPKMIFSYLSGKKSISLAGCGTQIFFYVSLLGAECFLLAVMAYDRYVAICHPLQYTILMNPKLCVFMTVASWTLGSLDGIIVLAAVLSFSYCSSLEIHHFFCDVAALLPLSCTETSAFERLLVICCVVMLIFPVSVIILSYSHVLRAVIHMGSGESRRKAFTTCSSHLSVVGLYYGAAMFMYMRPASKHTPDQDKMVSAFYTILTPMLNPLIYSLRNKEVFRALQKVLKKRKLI
How it was run: as §1

OR2M7 (Homo sapiens) = biological target: T7, OR2M7 (Homo sapiens) (UniProt Q8NG81)
T7 sequence (whole entry): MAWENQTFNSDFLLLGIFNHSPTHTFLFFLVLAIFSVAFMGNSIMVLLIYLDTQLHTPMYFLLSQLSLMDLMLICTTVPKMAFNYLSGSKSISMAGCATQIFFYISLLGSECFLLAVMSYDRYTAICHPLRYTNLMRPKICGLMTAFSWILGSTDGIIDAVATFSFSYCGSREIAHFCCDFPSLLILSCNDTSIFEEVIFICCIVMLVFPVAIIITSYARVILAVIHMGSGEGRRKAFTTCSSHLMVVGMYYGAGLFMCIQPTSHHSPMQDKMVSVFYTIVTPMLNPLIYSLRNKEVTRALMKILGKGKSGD
How it was run: as §1

OR2M7 [1] = test system: T8, OR2M7
T8 sequence (whole entry): T7 sequence (whole entry) with F35L, V78A, C178F
How it was run: as §1

OR2M7 [2] = test system: T9, OR2M7; remark: listed apart in the source
T9 sequence (whole entry): T7 sequence (whole entry) with F35L, V78A, C178F, D191N
How it was run: as §1

OR2S1 = test system: T10, OR2S1
T10 sequence (whole entry): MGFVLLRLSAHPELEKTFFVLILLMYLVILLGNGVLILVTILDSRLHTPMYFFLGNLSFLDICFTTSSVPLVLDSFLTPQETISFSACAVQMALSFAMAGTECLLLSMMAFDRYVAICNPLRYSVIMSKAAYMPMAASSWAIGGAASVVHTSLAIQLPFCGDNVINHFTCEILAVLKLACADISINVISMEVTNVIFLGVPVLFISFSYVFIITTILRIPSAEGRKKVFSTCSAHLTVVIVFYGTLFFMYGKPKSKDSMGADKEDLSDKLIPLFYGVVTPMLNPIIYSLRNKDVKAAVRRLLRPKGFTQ
How it was run: as §1

OR2T10 (Homo sapiens) = biological target: T11, OR2T10 (Homo sapiens) (UniProt Q8NGZ9)
T11 sequence (whole entry): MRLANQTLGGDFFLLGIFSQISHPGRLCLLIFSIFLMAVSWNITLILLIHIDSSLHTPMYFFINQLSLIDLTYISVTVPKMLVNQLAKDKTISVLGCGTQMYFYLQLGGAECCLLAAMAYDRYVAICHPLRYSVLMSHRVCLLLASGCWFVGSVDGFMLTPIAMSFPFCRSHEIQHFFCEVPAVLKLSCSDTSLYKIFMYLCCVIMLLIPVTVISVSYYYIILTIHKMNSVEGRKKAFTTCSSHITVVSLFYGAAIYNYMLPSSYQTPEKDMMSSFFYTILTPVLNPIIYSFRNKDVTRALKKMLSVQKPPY
How it was run: as §1

Measured: odorant receptor agonist call

CC12C=CCC1C1CCC3=CC(=O)CCC3(C)C1CC2 (stereo not given)
inactive: all assays above

CCC1(O)C2(C)CCC(C2)C1(C)C (stereo not given)
active: OR2M3 (Homo sapiens)
inactive: all other assays above

CC(C)(C)c1ccc(CCC=O)cc1
inactive: all assays above

CCCCCC(=O)O
inactive: all assays above

CC(=O)OC1CC2CCC1(C)C2(C)C (stereo not given)
inactive: all assays above

CCCCCCOC(=O)CCC
inactive: all assays above

O=C1CCCCCCCCCCCCCCO1
inactive: all assays above

CCCCCCCC=O
inactive: all assays above

C=CCSCC=C
inactive: all assays above

CCCCCCC=O
inactive: OR2M7 (Homo sapiens)

C=CCc1ccc(O)c(OC)c1
inactive: OR2M3 (Homo sapiens)

C=C(C)C1CCC2=CC(=O)CC(C)C2(C)C1 (stereo not given)
active: OR2L5 (Homo sapiens)

COC(=O)c1ccccc1O
inactive: all assays above

CC1=NC(C)SC1C (stereo not given)
not listed: OR2L5 (Homo sapiens)
inactive: all other assays above

c1cnccn1
inactive: all assays above

CC1CCC(C(C)C)C(O)C1 (stereo not given)
active: OR2L3 | OR2L8 | OR2S1
inactive: all other assays above

COC(=O)c1ccccc1
active: OR2M4 (Homo sapiens) | OR2T10 (Homo sapiens)
not listed: OR2L5 (Homo sapiens)
inactive: all other assays above

CCCCCCCC=CC=O
active: OR2L3 | OR2M7 [1]
inactive: all other assays above

O=C1CCCCC1
not listed: OR2L5 (Homo sapiens)
inactive: all other assays above

CC(C)(O)CCCC1=CCC(C=O)CC1 (stereo not given)
active: OR2L5 (Homo sapiens)
inactive: OR2M7 (Homo sapiens)

COc1cc(C=O)ccc1O
not listed: OR2M4 (Homo sapiens) | OR2T10 (Homo sapiens)
inactive: all other assays above

CC(C)=CCCC(C)=CC=O
inactive: all assays above

CC(C)CC(=O)O
inactive: all assays above

CCCCCCCOC(C)=O
inactive: all assays above

CC(=O)c1ccccc1
active: OR2M3 (Homo sapiens)
not listed: OR2L5 (Homo sapiens)
inactive: all other assays above

CC(=O)C(C)=O
inactive: all assays above

C=C(C)C1CC=C(C)C(=O)C1 (stereo not given)
inactive: OR2M3 (Homo sapiens) | OR2M7 (Homo sapiens)

CCCCCC(C)=O
not listed: OR2L5 (Homo sapiens)
inactive: all other assays above

CCCCCCCCC=O
inactive: OR2M3 (Homo sapiens) | OR2M7 (Homo sapiens)

From the M2OR odorant receptor database
